From patent US20100267753A1, “METHODS OF TREATING DISORDERS ASSOCIATED WITH PROTEIN KINASE CK2 ACTIVITY” (priority 2009, published 2010)
Entries after “also recorded” stand apart in the source; their conditions may differ. At least one structure is not confirmed: it was looked up by name or label, or the drawing left a doubt.

Experiments:
[1] = test system: formalin-induced persistent pain; assay: Formalin-induced persistent pain model (flinching); type: in vivo, ICR mice
Method: See Hunskaar, et al., “The formalin test in mice: Dissociation between inflammatory and non-inflammatory pain,” Pain, vol. […] 89, 53-63 (2000). These tests were conducted with ICR mice, in accordance with guidelines established by the International Association for the Study of Pain. Compounds of the invention were used as solutions of about 3-20 mg/mL in aqueous solution at about pH 8. […] The test animals were monitored for at least 40 minutes, during which time the number of flinches occurring during each 5-minute period were observed and recorded. A cohort of 12 animals were used for each dose level of each compound tested.
The compounds were administered orally in a single dose, of 30, 100, and 200 mg/kg, one hour prior to injection of formalin Pain response was measured by flinching frequency.

[2] = test system: CFA-induced thermal hyperalgesia; assay: CFA-induced thermal hyperalgesia model (Hargreaves); type: in vivo, ICR mice; conditions: 25, 75 or 150 mg/kg BID for four days, dosed as suspensions
Method: The observations of pain responses were done blindly.
[…] On day 4, test subjects received a single injection of CFA (20 microliters) subcutaneously in the plantar surface of the left rear paw. CFA was injected subcutaneously into the plantar surface of the left hind paw of each test subject, under isoflurane anesthesia. […] On day 5, thermal responses were measured prior to treatment with the compound and again 1, 2, and 4 hours after treatment with […]. Withdrawal latencies were measured in response to thermal stimulus by the Hargreaves method. Naproxen was used as a positive control.

Structure (SMILES): C#Cc1cccc(Nc2nc3cc(C(=O)O)ccc3c3cncnc23)c1 [Compound 1, 5-(3-ethynylphenylamino)pyrimido[4,5-c]quinoline-8-carboxylic acid]
- formalin-induced flinching, Phase II ([1]; 10-40 minute phase post-injection, single oral dose 30, 100, 200 mg/kg): significantly reduced formalin-induced flinching; also recorded: statistically significant effects were seen in two of the three test groups
- formalin-induced flinching, Phase II ([1]; 10-40 minute phase, 100 mg/kg oral): effective
- formalin-induced flinching, Phase II ([1]; 10-40 minute phase, 200 mg/kg oral): effective
- formalin-induced flinching, Phase I ([1]; first 9 minute phase post-injection, single oral dose 30, 100, 200 mg/kg one hour prior to formalin): neither compound affected rates of flinching; also recorded: not statistically significant
- effect on CFA-induced thermal hyperalgesia [2]: Neither compound exhibited a statistically significant effect
